No constants are given. Whether binding was seen depends on the method and setting. Binding seen in cells or lysates may run through a third protein. Binding can be weak; no strength is given. Sequences can lack the tags named with a protein.
Biological target: T1, Rho family GTPase 3 (Rnd3), Flag-tagged, expressed from adenovirus Ad-Rnd3-Flag (UniProt P61588)
T1 sequence: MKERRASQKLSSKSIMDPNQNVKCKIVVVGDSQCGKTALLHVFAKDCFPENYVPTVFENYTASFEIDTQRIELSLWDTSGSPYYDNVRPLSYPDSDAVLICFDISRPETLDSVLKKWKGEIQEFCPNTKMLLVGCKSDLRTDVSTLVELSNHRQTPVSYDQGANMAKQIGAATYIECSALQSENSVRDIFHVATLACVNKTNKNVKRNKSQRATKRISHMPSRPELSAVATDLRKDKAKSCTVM
Assay: co-IP; cardiac fibroblasts treated with Ad-Rnd3-Flag in conditioned medium (HG+PA); which protein was precipitated is not told in the text shown

For “Notch intracellular domain (NICD) (domain or fragment)”, the binding was “binds”.

— PMC9691359
